Data source: PubChem BioAssay AID1159578 (Peter MacCallum Cancer Centre, 2015)
Purpose: 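siRNA pools altering how lymphatic endothelial cells close a scratch wound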 (primary screen). System: human lymphatic endothelial cells. Reagents: siRNA pool against human genes, 40 nM. Duration: 48 h after transfection. Detection: 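High-content imaging of dye-stained cells in a scratch assay measures filled wound area and nuclei per well; duplicate means given as ratio to mock and robust z-score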. Direction: migration robust z-score: higher = faster migration into the scratch; migration relative to mock: higher = more scratch area covered than mock; nuclei per well: higher = more cells in the well. Hit rule: 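Migration changed when robust z exceeds 2 or falls below -2 and mean nuclei number is at least 3300; otherwise not called changed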. Calls: active = migration changed; inactive = no migration change, or too few cells.
In all, the deposit lists about 18,000 reagents; this is a random part of them. Of all reagents, about 1,030 (5.7%) are marked active. 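Inactive calls also include pools with fewer than 3300 nuclei, whose migration was not assessed.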 Raw values vary from plate to plate and are shown uncorrected.

gene | migration robust z-score | migration class with cell-count check | migration relative to mock | nuclei per well, duplicate mean | Call
UNC93A (unc-93 homolog A) | -0.1 | migration z between -2 and 2; enough cells | 0.86 | 6534 | inactive
GYS1 (glycogen synthase 1) | 1.94 | migration z between -2 and 2; enough cells | 1.18 | 5902 | inactive
TARS3 (threonyl-tRNA synthetase 3) | -0.02 | migration z between -2 and 2; enough cells | 0.8 | 5690 | inactive
OR2B6 (olfactory receptor family 2 subfamily B member 6) | -0.05 | migration z between -2 and 2; enough cells | 0.88 | 5226 | inactive
OR52J3 (olfactory receptor family 52 subfamily J member 3) | -0.96 | migration z between -2 and 2; enough cells | 0.64 | 3658 | inactive
ASMTL (acetylserotonin O-methyltransferase like) | -5.74 | under 3300 nuclei; migration not judged | -0.3 | 2494 | inactive
HBEGF (heparin binding EGF like growth factor) | -1.48 | migration z between -2 and 2; enough cells | 0.52 | 4104 | inactive
CPAP (centrosome assembly and centriole elongation protein) | -0.94 | migration z between -2 and 2; enough cells | 0.62 | 4144 | inactive
GZF1 (GDNF inducible zinc finger protein 1) | -0.76 | migration z between -2 and 2; enough cells | 0.69 | 5594 | inactive
C9orf78 (chromosome 9 open reading frame 78) | -0.5 | migration z between -2 and 2; enough cells | 0.76 | 5984 | inactive
CTSO (cathepsin O) | 1.06 | migration z between -2 and 2; enough cells | 1.01 | 5400 | inactive
CYP24A1 (cytochrome P450 family 24 subfamily A member 1) | -0.86 | migration z between -2 and 2; enough cells | 0.64 | 4222 | inactive
OR4C12 (olfactory receptor family 4 subfamily C member 12) | -0.36 | migration z between -2 and 2; enough cells | 0.78 | 4096 | inactive
PCYT1A (phosphate cytidylyltransferase 1A, choline) | -0.64 | migration z between -2 and 2; enough cells | 0.68 | 5448 | inactive
NSD3 (nuclear receptor binding SET domain protein 3) | -0.02 | migration z between -2 and 2; enough cells | 0.8 | 5444 | inactive
CDH10 (cadherin 10) | -1.49 | migration z between -2 and 2; enough cells | 0.5 | 6378 | inactive
MYG1 (MYG1 exonuclease) | -1.32 | migration z between -2 and 2; enough cells | 0.54 | 5256 | inactive
DNM3 (dynamin 3) | 1.64 | migration z between -2 and 2; enough cells | 1.12 | 4956 | inactive
NFAT5 (nuclear factor of activated T cells 5) | -0.13 | under 3300 nuclei; migration not judged | 0.78 | 3227 | inactive
CPEB1 (cytoplasmic polyadenylation element binding protein 1) | -1.25 | migration z between -2 and 2; enough cells | 0.56 | 5963 | inactive
NDUFV1-DT (NDUFV1 divergent transcript) | -1.5 | migration z between -2 and 2; enough cells | 0.49 | 6058 | inactive
TBC1D8B (TBC1 domain family member 8B) | -0.29 | migration z between -2 and 2; enough cells | 0.82 | 5762 | inactive
ESF1 (ESF1 nucleolar pre-rRNA processing protein) | -1.07 | migration z between -2 and 2; enough cells | 0.61 | 6139 | inactive
ELOC (elongin C) | 0.26 | migration z between -2 and 2; enough cells | 0.86 | 6199 | inactive
FGF19 (fibroblast growth factor 19) | 0.2 | migration z between -2 and 2; enough cells | 0.84 | 6016 | inactive
DDX20 (DEAD-box helicase 20) | 0.24 | migration z between -2 and 2; enough cells | 0.85 | 6155 | inactive
ICE2 (interactor of little elongation complex ELL subunit 2) | 0.61 | migration z between -2 and 2; enough cells | 1.04 | 7242 | inactive
CCDC54 (coiled-coil domain containing 54) | -0.58 | migration z between -2 and 2; enough cells | 0.73 | 6237 | inactive
KLRC3 (killer cell lectin like receptor C3) | -1.6 | migration z between -2 and 2; enough cells | 0.47 | 6247 | inactive
LRRC71 (leucine rich repeat containing 71) | 0.22 | migration z between -2 and 2; enough cells | 0.94 | 5878 | inactive
MGST2 (microsomal glutathione S-transferase 2) | -0.39 | migration z between -2 and 2; enough cells | 0.78 | 4951 | inactive
CTNNAL1 (catenin alpha like 1) | 0.82 | migration z between -2 and 2; enough cells | 1.09 | 5780 | inactive
HYI (hydroxypyruvate isomerase (putative)) | 0.08 | migration z between -2 and 2; enough cells | 0.82 | 5835 | inactive
CREB3 (cAMP responsive element binding protein 3) | -0.42 | migration z between -2 and 2; enough cells | 0.73 | 4616 | inactive
KERA (keratocan) | 1.36 | migration z between -2 and 2; enough cells | 1.23 | 6631 | inactive
ACAD9 (acyl-CoA dehydrogenase family member 9) | 1.71 | migration z between -2 and 2; enough cells | 1.14 | 5066 | inactive
ARCN1 (archain 1 coat protein complex I subunit delta) | -2.29 | migration z below -2; enough cells | 0.3 | 5890 | active
PDZD2 (PDZ domain containing 2) | -0.31 | migration z between -2 and 2; enough cells | 0.8 | 5374 | inactive
STX17 (syntaxin 17) | 0.62 | migration z between -2 and 2; enough cells | 1.05 | 5063 | inactive

5 entries already listed, arranged by “migration relative to mock”, lowest first.
gene | migration robust z-score | migration class with cell-count check | migration relative to mock | nuclei per well, duplicate mean | Call
ESF1 (ESF1 nucleolar pre-rRNA processing protein) | -1.07 | migration z between -2 and 2; enough cells | 0.61 | 6139 | inactive
TBC1D8B (TBC1 domain family member 8B) | -0.29 | migration z between -2 and 2; enough cells | 0.82 | 5762 | inactive
FGF19 (fibroblast growth factor 19) | 0.2 | migration z between -2 and 2; enough cells | 0.84 | 6016 | inactive
DDX20 (DEAD-box helicase 20) | 0.24 | migration z between -2 and 2; enough cells | 0.85 | 6155 | inactive
ELOC (elongin C) | 0.26 | migration z between -2 and 2; enough cells | 0.86 | 6199 | inactive
